Measurements reported in PubChem BioAssay AID720505 (Drosophila RNAi Screening Center, 2013)
The deposit covers about 20,000 reagents; shown is a random part of those with a known target gene and a result. Of all reagents, about 2,100 (10%) are marked active. 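Raw plate signals without normalisation; calls rest on control-based scores that were not deposited; replicate 2 separates called from uncalled poorly.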 Reagent sequences are not shown. The record does not give: the amount of reagent, the time to read-out.

Screen: 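Knock-downs that reduce calcium influx once internal stores are emptied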 (primary screen)
Cell system: Drosophila S2R+ cells
Knock-down reagent: long dsRNA against Drosophila genes
Challenge: thapsigargin (2 µM) in calcium-free buffer to empty internal stores, then 2 mM calcium added back
Detection: 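Fluo-4 signal in 384-well plates read on a FLIPR after thapsigargin (2 µM, calcium-free) store depletion and 2 mM calcium add-back; unnormalised mean endpoint per well; screen run twice, selected wells retested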
Reading the numbers: calcium signal: higher = more calcium entry after store depletion
Rule for the call: 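Knock-downs counted as hits when calcium entry dropped relative to STIM1 positive and Rho1 negative controls present on each plate; roughly 1500 genes called, with reductions of differing size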
Meaning of the calls: active = called as lowering calcium entry; inactive = not called

lncRNA:CR30009 [DRSC22952] → calcium signal, replicate 1 = 77.9; calcium signal, replicate 2 = 201; Call = inactive
CG30154 [DRSC05889] → calcium signal, replicate 1 = 62.4; calcium signal, replicate 2 = 117; Call = active
lncRNA:CR43242 [DRSC03827] → calcium signal, replicate 1 = 167; calcium signal, replicate 2 = 80.8; Call = inactive
CG32767 [DRSC18386] → calcium signal, replicate 1 = 262; calcium signal, replicate 2 = 99.5; Call = inactive
PI31 [DRSC07306] → calcium signal, replicate 1 = 163; calcium signal, replicate 2 = 236; Call = inactive
HDAC6 [DRSC20252] → calcium signal, replicate 1 = 119; calcium signal, replicate 2 = 119; Call = inactive
CG6938 [DRSC10752] → calcium signal, replicate 1 = 44.1; calcium signal, replicate 2 = 86.8; Call = active
Acsl [DRSC07252] → calcium signal, replicate 1 = 167; calcium signal, replicate 2 = 163; Call = inactive
Dys [DRSC15260] → calcium signal, replicate 1 = 147; calcium signal, replicate 2 = 182; Call = inactive
Dys [DRSC16218] → calcium signal, replicate 1 = 167; calcium signal, replicate 2 = 151; Call = inactive
Dys [DRSC16219] → calcium signal, replicate 1 = 179; calcium signal, replicate 2 = 142; Call = inactive
Dys [DRSC16220] → calcium signal, replicate 1 = 142; calcium signal, replicate 2 = 173; Call = inactive
Dys [DRSC16935] → calcium signal, replicate 1 = 142; calcium signal, replicate 2 = 144; Call = inactive
Vps50 [DRSC06910] → calcium signal, replicate 1 = 142; calcium signal, replicate 2 = 129; Call = inactive
CG12637 [DRSC17845] → calcium signal, replicate 1 = 93.4; calcium signal, replicate 2 = 101; Call = inactive
dj-1beta [DRSC14599] → calcium signal, replicate 1 = 161; calcium signal, replicate 2 = 150; Call = inactive
LysE [DRSC08675] → calcium signal, replicate 1 = 80.4; calcium signal, replicate 2 = 106; Call = inactive
CG11007 [DRSC06023] → calcium signal, replicate 1 = 137; calcium signal, replicate 2 = 125; Call = inactive

Entries above with an active call, once more:
CG30154 [DRSC05889] → calcium signal, replicate 1 = 62.4; calcium signal, replicate 2 = 117; Call = active
CG6938 [DRSC10752] → calcium signal, replicate 1 = 44.1; calcium signal, replicate 2 = 86.8; Call = active

The results go on.
Esyt2 [DRSC16082] → calcium signal, replicate 1 = 224; calcium signal, replicate 2 = 192; Call = inactive
CG34433 [DRSC15077] → calcium signal, replicate 1 = 207; calcium signal, replicate 2 = 167; Call = inactive
l(2)k09913 [DRSC04699] → calcium signal, replicate 1 = 160; calcium signal, replicate 2 = 126; Call = inactive
Gr98a [DRSC14719] → calcium signal, replicate 1 = 113; calcium signal, replicate 2 = 190; Call = inactive
Orco [DRSC12358] → calcium signal, replicate 1 = 152; calcium signal, replicate 2 = 155; Call = inactive
CG6927 [DRSC18407] → calcium signal, replicate 1 = 108; calcium signal, replicate 2 = 76.5; Call = inactive
Coq6 [DRSC03040] → calcium signal, replicate 1 = 166; calcium signal, replicate 2 = 280; Call = inactive
CG5339 [DRSC04496] → calcium signal, replicate 1 = 96.7; calcium signal, replicate 2 = 96.3; Call = inactive
asl [DRSC12319] → calcium signal, replicate 1 = 149; calcium signal, replicate 2 = 178; Call = inactive
sno [DRSC20378] → calcium signal, replicate 1 = 95.3; calcium signal, replicate 2 = 111; Call = inactive
lncRNA:CR43314 [DRSC01216] → calcium signal, replicate 1 = 214; calcium signal, replicate 2 = 126; Call = inactive
lncRNA:CR43314 [DRSC21354] → calcium signal, replicate 1 = 151; calcium signal, replicate 2 = 102; Call = inactive
CG13081 [DRSC02185] → calcium signal, replicate 1 = 176; calcium signal, replicate 2 = 88.7; Call = inactive
CG11353 [DRSC08182] → calcium signal, replicate 1 = 76; calcium signal, replicate 2 = 138; Call = inactive
Rnmt [DRSC03558] → calcium signal, replicate 1 = 74.2; calcium signal, replicate 2 = 88.2; Call = inactive
Meics [DRSC11413] → calcium signal, replicate 1 = 126; calcium signal, replicate 2 = 116; Call = inactive
Had1 [DRSC20216] → calcium signal, replicate 1 = 89.1; calcium signal, replicate 2 = 129; Call = inactive
